Data published in patent publication US20240166731A1.
Results are given in words; binding and its absence hold for the method and conditions named. Some entries that bind do so weakly or less than the wild type.

Sequences of proteins named here, by UniProt entry; tags and fusion partners are left off. A change or cut given only in a name is not applied to a line headed by its entry.
UniProt P10636: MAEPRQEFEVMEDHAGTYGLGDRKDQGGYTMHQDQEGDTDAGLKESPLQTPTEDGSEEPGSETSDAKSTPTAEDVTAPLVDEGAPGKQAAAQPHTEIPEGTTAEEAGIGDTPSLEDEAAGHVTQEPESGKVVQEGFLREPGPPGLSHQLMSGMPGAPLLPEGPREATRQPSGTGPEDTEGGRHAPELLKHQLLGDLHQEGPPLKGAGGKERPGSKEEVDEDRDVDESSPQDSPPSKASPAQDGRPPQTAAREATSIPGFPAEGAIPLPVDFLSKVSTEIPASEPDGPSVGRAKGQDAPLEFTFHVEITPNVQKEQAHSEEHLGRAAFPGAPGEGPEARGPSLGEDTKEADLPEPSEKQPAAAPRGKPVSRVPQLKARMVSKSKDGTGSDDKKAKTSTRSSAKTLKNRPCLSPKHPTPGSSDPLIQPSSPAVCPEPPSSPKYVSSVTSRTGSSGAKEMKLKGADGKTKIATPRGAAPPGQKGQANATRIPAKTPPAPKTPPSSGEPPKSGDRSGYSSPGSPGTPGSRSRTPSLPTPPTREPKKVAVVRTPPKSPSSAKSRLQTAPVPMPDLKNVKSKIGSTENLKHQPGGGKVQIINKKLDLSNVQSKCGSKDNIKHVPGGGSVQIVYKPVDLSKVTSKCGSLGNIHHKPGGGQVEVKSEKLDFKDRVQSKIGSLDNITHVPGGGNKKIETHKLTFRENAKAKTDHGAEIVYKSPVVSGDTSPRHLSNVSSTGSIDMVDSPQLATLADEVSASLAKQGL

Key:
[1] = molecular target: biotinylated full-length Tau protein (UniProt P10636); assay: ELISA, figure legend of FIG. 1
[2] = molecular target: biotinylated full-length Tau protein (UniProt P10636); assay: ELISA: biotinylated full-length Tau immobilised at 0.039-2.5 ug/mL (x axis is the antigen concentration), Fab in E. coli supernatant, anti-Fab'2-HRP, chemiluminescence
[3] = molecular target: biotinylated full-length Tau protein (UniProt P10636); assay: ELISA, biotinylated full-length Tau on plate, E. coli Fab supernatant, anti-Fab'2-HRP chemiluminescence
[4] = molecular target: human full-length recombinant tau (2N4R) (human) (UniProt P10636); assay: SPR, Biacore T200, mAb captured by anti-Fc, tau in solution
[5] = molecular target: human full-length recombinant tau (2N4R) (human) (UniProt P10636); assay: SPR, single-cycle kinetics, antibody captured by anti-Fc, tau injected at 2.2, 6.7, 20 and 60 nM, 1:1 Langmuir fit

binding [1] | binding [2] | binding [3] | binding [4] | binding [5] | Binder
binds | binds | binds |  |  | PT1B1142 (Fab, V domains shown) VH: QVQLVQSGAEVKKPGASVKVSCKASGYTFTSYWITWVRQRPGQGLEWMGDIHPGRGSTKYAQKLQGRVTMTTDTSTSTAYMELRSLRSDDTAVYYCARRWGFDYWGQGTLVTVSS VL: DIVMTQTPLSSPVTLGQPASISCRSSKSLLYKDGKTYLNWLQQRPGQPPRLLIYLMSTRASGVPDRFSGSGAGTDFTLKISRVEAEDVGVYYCQQLVDYPLTFGQGTKLEIK
 |  |  | binds | binds | PT1B901 (antibody, human IgG1, kappa, V domains shown) VH: QVQLVQSGAEVKKPGASVKVSCKASGYTFTSYWITWVRQAPGQGLEWMGDIHPGRGSTKYAQKLQGRVTLTTDTSTSTAYMELRSLRSDDTAVYYCARRWGFDYWGQGTLVTVSS VL: DIVITQTPLSLPVTPGEPASISCRSSKSLLYKDLKTYLNWFLQKPGQSPQLLIYLMSTRASGVPDRFSGSGSGTDFTLKISRVEAEDVGVYYCQQLVDYPLTFGQGTKLEIKR
 |  |  | binds | binds | PT1B635 (antibody, human IgG1, kappa, V domains shown) VH: QVQLVQSGAEVKKPGASVKVSCKASGYTFTSYWITWVRQAPGQGLEWMGDIHPGRGSTKYAQKLQGRVTLTTDTSTSTAYMELRSLRSDDTAVYYCARRWGFDYWGQGTLVTVSS VL: DIVITQTPLSLPVTPGEPASISCRSSKSLLYKDGKTYLNWFLQKPGQSPQLLIYLMSTRASGVPDRFSGSGSGTDFTLKISRVEAEDVGVYYCQQLVDYPLTFGQGTKLEIKR
 | binds | binds |  |  | PT1B585 (PT/66) (Fab, V domains shown) VH: QVQLQQPGAELVKPGASVKMSCKASGYTFTSYWITWVKQRPGQGLEWIGDIHPGRGSTKSNEKFKSKATLTVDTSSSTAYMQFSSLTSEDSAVYYCARRWGFDYWGQGTTLTVSS VL: DIVITQDELSNPVTSGESVSISCRSSKSLLYKDGKTYLNWFLQRPGQSPQLLIYLMSTRASGVSDRFSGSGSGTDFTLEISRVKAEDVGVYYCQQLVDYPLTFGAGTKLELK
